This is an account of results in article PMC9389662.

The chains behind the UniProt entries cited, without tags or fusion partners.
UniProt P46937: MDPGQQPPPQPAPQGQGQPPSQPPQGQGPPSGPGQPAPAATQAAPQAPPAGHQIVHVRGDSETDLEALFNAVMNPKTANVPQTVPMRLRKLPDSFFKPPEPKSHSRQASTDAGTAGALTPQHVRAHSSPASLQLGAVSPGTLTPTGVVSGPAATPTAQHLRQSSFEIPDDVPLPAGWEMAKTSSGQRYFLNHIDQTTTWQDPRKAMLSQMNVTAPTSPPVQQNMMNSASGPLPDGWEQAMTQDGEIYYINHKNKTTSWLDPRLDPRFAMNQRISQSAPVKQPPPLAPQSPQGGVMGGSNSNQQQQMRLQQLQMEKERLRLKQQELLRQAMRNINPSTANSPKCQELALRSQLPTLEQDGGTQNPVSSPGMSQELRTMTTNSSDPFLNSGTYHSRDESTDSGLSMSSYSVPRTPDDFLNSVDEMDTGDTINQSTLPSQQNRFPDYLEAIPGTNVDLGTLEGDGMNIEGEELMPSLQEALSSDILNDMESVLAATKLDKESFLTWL
UniProt Q92598: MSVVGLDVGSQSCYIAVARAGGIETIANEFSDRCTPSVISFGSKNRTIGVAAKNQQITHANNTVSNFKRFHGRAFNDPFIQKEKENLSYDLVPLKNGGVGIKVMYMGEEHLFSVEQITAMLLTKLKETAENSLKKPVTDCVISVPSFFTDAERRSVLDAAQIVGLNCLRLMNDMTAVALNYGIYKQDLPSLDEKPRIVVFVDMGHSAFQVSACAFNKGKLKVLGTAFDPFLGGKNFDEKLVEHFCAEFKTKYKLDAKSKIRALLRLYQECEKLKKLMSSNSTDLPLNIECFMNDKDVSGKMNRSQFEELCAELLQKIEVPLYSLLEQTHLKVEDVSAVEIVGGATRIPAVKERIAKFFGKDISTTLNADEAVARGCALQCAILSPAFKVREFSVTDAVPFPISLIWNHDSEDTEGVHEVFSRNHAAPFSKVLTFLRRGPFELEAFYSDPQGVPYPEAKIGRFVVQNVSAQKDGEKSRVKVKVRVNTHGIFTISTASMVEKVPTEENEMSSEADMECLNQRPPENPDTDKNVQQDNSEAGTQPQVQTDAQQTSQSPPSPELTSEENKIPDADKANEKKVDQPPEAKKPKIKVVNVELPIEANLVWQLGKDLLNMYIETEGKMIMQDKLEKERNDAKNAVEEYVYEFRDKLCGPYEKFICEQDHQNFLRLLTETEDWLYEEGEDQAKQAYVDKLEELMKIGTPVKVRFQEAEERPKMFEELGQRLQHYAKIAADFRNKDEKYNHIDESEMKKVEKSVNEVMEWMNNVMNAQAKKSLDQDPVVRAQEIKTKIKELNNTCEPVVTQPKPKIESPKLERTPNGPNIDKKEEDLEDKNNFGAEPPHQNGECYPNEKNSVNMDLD

No constants are given. Whether binding was seen depends on the method and setting. In cells and extracts the contact can be indirect. Some binding calls cover weakened binding; strength is not graded here.

This test has as its target Yes-associated protein (YAP), Myc-tagged (UniProt P46937). The experiment in a line: co-IP; HEK293T cells transfected with HSP110-Flag alone or together with YAP-Myc for 48 h; lysates precipitated with anti-Myc, blotted with anti-Flag and anti-Myc.

On to “Heat shock protein-110 (HSP110), Flag-tagged (from UniProt Q92598 1-858)”, for which the binding result was “binds”.
